This is an account of results in US8030341B2 (priority 2005, dated 2011).

This series is described as follows: general procedure: solution-phase peptide synthesis; PyBop/DIPEA. To be noted: coupling step.

Strings that start with PEPTIDE1 are HELM notation: dots part the residues, brackets hold end groups and non-standard residues.

“PEPTIDE1{[N,N-diallyl-Tyr].P.F.F.[am]}$$$$V2.0”: under “HCl”, the step yield came to 73.8%.

“PEPTIDE1{[N-allyl-Dmt].P.F.F.[am]}$$$$V2.0”: the step yield (HCl salt) amounted to 70%.

Turning to [N-Boc-N-allyl-Tyr]EM-2, where the note is “HCl salt”, the step yield was 80%.
